According to PubChem BioAssay AID445 (National Center for Advancing Translational Sciences (NCATS), 2006):
Some of the results follow. Shown are side measurements of this screen, not its main read-out; they come without a call. Compounds called inactive in the main read-out are mostly missing here. Words in brackets tell the shape of the fitted curve; partial curves, single points and poor fits give uncertain potencies.

test: IkB Signaling; conditions: ABC-DLBCL IkBa-CBG/CBR dual luciferase ratio (green luciferase fused to IkBa over red control in OCI-Ly3 lymphoma cells), 4 h; measured here: control luc red channel unless noted
In short: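 In this assay, an IκBα–CBG68 fusion accumulates when IKK-driven degradation is blocked; native CBR normalizes for cell number. OCI-Ly3 cells were treated 4 h with compound and doxycycline, then green and red light read after Chroma-Glo addition.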

| SMILES | AC50 |
| --- | --- |
| CC(=O)Nc1ccc(Cc2ccc3[nH]c(=O)cc(C)c3c2)cc1 | 3.98 µM [rising, partial curve] [measured here: IkB-luc green channel] |
| Cc1cc(C)cc(-n2c(SCC(=O)Nc3ccc4c(c3)OCO4)nc3c([nH]c4ccccc43)c2=O)c1 | 39.8 µM [rising, single point] |
| CCCN1CCCc2cc(CN(CCCN3CCOCC3)C(=O)Nc3ccc(Cl)c(Cl)c3)ccc21 | 7.94 µM [falling, partial curve] |
| COc1ccc2sc(N(Cc3cccnc3)C(=O)CCc3ccccc3)nc2c1 | 2.51 µM [rising, partial curve] [measured here: IkB-luc green channel] |
| CCOC(=O)c1c(S(=O)(=O)N2CCC(C(=O)NCc3ccccc3Cl)CC2)c(C)n(C)c1C | 0.2 µM [falling, full curve, poor fit] |
| COc1cccc(CNC(=O)c2ccc3c(c2)sc2nc(-c4cccc(OC)c4)cn23)c1 | 39.8 µM [falling, partial curve] |
| COCCn1ccc2c(OCC(=O)Nc3cccc(C(F)(F)F)c3)cccc2c1=O | 39.8 µM [falling, single point] |
| Cc1cccc(N2CCN(C(=O)c3cnn(-c4ccccc4)c3C3CCN(C(=O)OC(C)(C)C)CC3)CC2)c1C | 15.8 µM [falling, partial curve] |
| COc1ccccc1CNC(=O)C1CCN(S(=O)(=O)Cc2ccccc2)CC1 | 6.31 µM [rising, single point] |
| CCC(=O)N1c2ccccc2CC1C(=O)NCCN1CCN(c2cc(Cl)ccc2C)CC1 (stereo unspecified) | 12.6 µM [falling, partial curve] |
| Cc1cc(C)cc(OCC(=O)N2CCC(c3nc4ccccc4o3)CC2)c1 | 20 µM [falling, partial curve] |
| CCOc1ccc(NC(=O)c2c(NCc3cc(OC)c(OC)cc3OC)sc3c2CCCC3)cc1 | 31.6 µM [falling, single point] |
| N#C/C(=C\c1ccc(F)cc1)c1nc(-c2ccc(-c3ccccc3)cc2)cs1 | 0.316 µM [falling, full curve] |
| COc1cccc(CC(=O)Nc2c(C(=O)N3CCN(c4ccccc4F)CC3)oc3ccccc23)c1 | 12.6 µM [falling, partial curve] |
| CCCC1=Nc2cc(C(=O)NC3CCCCC3)ccc2Sc2ccc(C)cc21 | 0.794 µM [rising, full curve] |
| COc1ccc(-c2cc(C(F)(F)F)n3nc(C(=O)NCc4ccco4)cc3n2)cc1 | 25.1 µM [falling, single point] |
| COc1cc(C2CC(=O)c3c([nH]c(C(=O)OC4CCCC4)c3C)C2)cc(OC)c1OC (stereo unspecified) | 12.6 µM [falling, partial curve] |
| Clc1ccc(-c2cn3cc(Cc4ccccc4)sc3n2)cc1 | 6.31 µM [falling, partial curve] |
| CCOc1ccc(CCNC(=O)c2ccc(CSCc3ccccc3C)o2)cc1OCC | 15.8 µM [falling, partial curve] |
| O=C(CSc1nc(=O)n(Cc2ccncc2)c2c1CCC2)Nc1cccc(F)c1 | 10 µM [falling, partial curve] |
| CCN(C(=O)C(NS(=O)(=O)c1ccc(Br)s1)c1ccccc1)c1ccc(C)c(C)c1 (stereo unspecified) | 25.1 µM [falling, single point] |

Arranged by SMILES length (low to high): part of the list above.

| SMILES | AC50 |
| --- | --- |
| Clc1ccc(-c2cn3cc(Cc4ccccc4)sc3n2)cc1 | 6.31 µM [falling, partial curve] |
| CC(=O)Nc1ccc(Cc2ccc3[nH]c(=O)cc(C)c3c2)cc1 | 3.98 µM [rising, partial curve] [measured here: IkB-luc green channel] |
| Cc1cccc(N2CCN(C(=O)c3cnn(-c4ccccc4)c3C3CCN(C(=O)OC(C)(C)C)CC3)CC2)c1C | 15.8 µM [falling, partial curve] |

Continuation.

| SMILES | AC50 |
| --- | --- |
| CC1(C)CC(=O)c2cc(-c3nc(-c4ccc(F)cc4)cs3)c(=O)[nH]c2C1 | 25.1 µM [rising, partial curve, poor fit] |
| CCc1cccc(NC(=O)C(Cc2ccccc2)NS(=O)(=O)c2cccs2)c1 (stereo unspecified) | 25.1 µM [falling, single point] |
| COc1ccc(-n2c(=O)c3c4c(sc3n(Cc3ccccc3C)c2=O)CCCC4)c(OC)c1 | 3.98 µM [falling, partial curve] |
| CCN1c2ccccc2-c2nc3ccccc3n2C1c1ccncc1 (stereo unspecified) | 12.6 µM [falling, partial curve] |
| CC(=O)c1ccc(Nc2cc(C)nc3nc(Cc4ccccc4)nn23)cc1 | 12.6 µM [falling, partial curve] |
| CCOc1ccc(C(=O)NCCc2csc(-c3cccc(C)c3)n2)cc1 | 7.94 µM [falling, full curve, poor fit] |
| CC(C)CC(=O)Nc1nnc(S(=O)(=O)N2c3ccccc3CC2C)s1 (stereo unspecified) | 15.8 µM [falling, single point] |
| Cc1ccc(C)c(N2CCN(CCCNC(=O)c3ccc4nc(N5CCC(C)CC5)sc4c3)CC2)c1 | 0.501 µM [falling, full curve] |
| COc1ccccc1NC(=O)CN1CCN(CC(=O)Nc2ccc3c(c2)OCCO3)CC1 | 12.6 µM [falling, partial curve] |
| CC1CC(C)(C)Nc2ccc(OC(=O)c3ccco3)cc21 (stereo unspecified) | 6.31 µM [falling, full curve] |
| CCc1c(C)c2cc3c(c(C)c2oc1=O)OCN(CCc1ccc(OC)c(OC)c1)C3 | 25.1 µM [falling, single point] |
| COc1ccc(N2CCN(C(=O)c3ccc(NS(=O)(=O)c4ccc(F)cc4)cc3)CC2)cc1 | 25.1 µM [falling, partial curve] |
| COC(=O)C1=CN(C(C)C)C=C(C(=O)OC)C1c1cc2c(cc1Br)OCO2 | 6.31 µM [falling, partial curve] |
| COc1ccc2c(c1)c1c(c(=O)n(-c3cccc(C)c3)c(=O)n1CC(=O)NCCC1=CCCCC1)n2C | 15.8 µM [falling, partial curve] |
| COc1ccccc1Nc1nc(-c2ccccc2)c(CC(=O)O)s1 | 31.6 µM [falling, partial curve] |
| O=c1oc2c(CN3CCCCCC3)c(O)ccc2cc1-c1nc2ccccc2[nH]1 | 31.6 µM [falling, partial curve] |
| O=c1c2cccnc2n(Cc2cccc(F)c2)c(=O)n1Cc1ccc(F)cc1 | 31.6 µM [falling, single point] |
| Cc1ccccc1OCC(=O)Nc1ccc2nc(SCC(=O)N3CCCC3)sc2c1 | 20 µM [falling, partial curve] |
| Cc1ccc(-c2nc(NC(=O)CSc3nnc4scc(-c5ccccc5)n34)ns2)cc1 | 15.8 µM [falling, partial curve] |
| COc1ccc(S(=O)(=O)c2nnn(-c3cccc(Cl)c3)c2N)cc1 | 15.8 µM [falling, partial curve] |
| CCOC(=O)c1cc(-c2ccc(OC)c(S(=O)(=O)N3CCN(c4ccccc4)CC3)c2)on1 | 15.8 µM [falling, partial curve] |

| SMILES | AC50 |
| --- | --- |
| O=C(Nc1nc2ccccc2[nH]1)c1ccc(F)cc1 | 1.58 µM [falling, full curve] |
| CC(NC(=O)c1cc2ccccc2o1)c1cccs1 (stereo unspecified) | 15.8 µM [falling, partial curve] |
| CCc1ccc(C(=O)COC(=O)C(NC(=O)C2CCC(C)CC2)C(C)C)cc1 (stereo unspecified) | 7.94 µM [falling, full curve] |
| CCCc1ccc(OCC(=O)Nc2sc3c(c2C(=O)OCC)CCC(C(C)(C)C)C3)cc1 (stereo unspecified) | 1 µM [rising, full curve, poor fit] |
| O=C(CSc1nc2scc(-c3ccco3)c2c(=O)n1-c1ccccc1)NCC1CCCO1 (stereo unspecified) | 3.98 µM [rising, partial curve] [measured here: IkB-luc green channel] |
| Cc1ccc(C(=O)CSc2nnc(CNc3ccc(C)cc3C)n2Cc2ccco2)cc1 | 15.8 µM [falling, partial curve] |
| CCn1c2c(c(=O)n3ncc(C(=O)N4CCN(c5ccc(Cl)cc5)CC4)c13)CN(Cc1ccc(OC)cc1)CC2 | 12.6 µM [falling, partial curve] |
| COc1ccc(-c2nc3scc(CCNS(=O)(=O)c4ccc(F)cc4C)n3n2)cc1 | 3.16 µM [rising, single point] |
| CCOC(=O)c1[nH]c(C)c(CCC(=O)NCc2ccc(CC)cc2)c1C | 31.6 µM [falling, single point] |
| COc1ccc(Nc2cc(C(=O)NCCCN3CCN(c4ccccc4F)CC3)c3ccccc3n2)c(OC)c1 | 12.6 µM [falling, partial curve] |
| Cc1ccc(-c2ccc(=O)n(CCC(=O)NCCc3ccccc3)n2)cc1 | 3.16 µM [rising, single point] |
| O=C1CSC2(C(=O)N(Cc3cccc(F)c3)c3ccccc32)N1c1cccc(C(F)(F)F)c1 (stereo unspecified) | 31.6 µM [falling, partial curve] |
| CCOC(=O)Cc1csc(NC(=O)CCc2ccc(S(=O)(=O)N3CCOCC3)cc2)n1 | 31.6 µM [falling, single point] |
| COc1ccc(NC(=O)c2ccc3nc(C(C)C)oc3c2)cc1OC | 6.31 µM [falling, partial curve, poor fit] |
| Cc1ccc(Cn2c(CO)cnc2SCC(=O)Nc2ccc(C)c(Cl)c2)cc1 | 20 µM [falling, single point] |
| COc1ccc(CNC(=O)CCc2c(C)c3cc4c(C)coc4c(C)c3oc2=O)cc1OC | 0.2 µM [rising, full curve, poor fit] |
| Cc1ccc(S(=O)(=O)CC(=O)N2CCN(c3nc4c(F)cccc4s3)CC2)cc1 | 6.31 µM [rising, single point] |
| CN1C(=O)c2ccccc2Sc2ccc(NC(=O)c3ccc(C(F)(F)F)cc3)cc21 | 20 µM [falling, partial curve] |
| N#Cc1ccccc1NS(=O)(=O)c1ccc(N2CCCCS2(=O)=O)cc1 | 0.251 µM [falling, full curve, poor fit] |

Fetched one by one from the entries so far, 2 records:

| SMILES | AC50 |
| --- | --- |
| COc1ccc(CNC(=O)CCc2c(C)c3cc4c(C)coc4c(C)c3oc2=O)cc1OC | 0.2 µM [rising, full curve, poor fit] |
| Cc1ccc(C(=O)CSc2nnc(CNc3ccc(C)cc3C)n2Cc2ccco2)cc1 | 15.8 µM [falling, partial curve] |
